Results from the supplement of paper PMC12823440, “Inhibitors supercharge kinase turnover through native proteolytic circuits” (Nature, 2025).
This is one part of the list. Hit calls seldom repeat between salt and free forms of one compound.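 Kinases were expressed as nanoluciferase fusions in K562 cells and luminescence was read every 4 h between 2 and 18 h as percent of control, DMSO set to 100% and a positive control to 0%. A time point counts as decreased when the signal drops significantly (2 sigma). The hit call is the authors' own, does not follow from the count of time points alone, and its rule is not shown.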

Each molecule was assayed against MAP2K1 (UniProt Q02750) (assay: number of time points (of 5) at which kinase-Nluc abundance scored as decreased, DMSO-normalised (count); higher = more persistent destabilization). Conditions: K562; 2-18 h.

Row | Compound | number of time points
1 | CC[C@@](C)(Nc1ccnc(-c2c[nH]c3ncccc23)n1)C(=O)NCC(F)(F)F [Decernotinib] (10 µM) | 0
2 | COc1cc2ncnc(-n3nc(-c4ccccn4)nc3N)c2cc1OC (10 µM) | 0
3 | O=C1/C(=C\c2ccc(Cl)cc2)C=C(c2ccccc2)N1c1ccc(O)cc1 (2.5 µM) | 0
4 | Oc1ccc(/C=C/c2cc(O)cc(O)c2)cc1 [Resveratrol] (10 µM) | 0

What follows are molecules tested against MAP2K2 (UniProt P36507) in the same assay as above. Conditions: K562; 2-18 h.

Row | Compound | number of time points
5 | CN1C(=O)[C@@H](NC(=O)c2n[nH]c(Cc3ccccc3)n2)COc2ccccc21 (10 µM) | 0
6 | O=C1NC(=Nc2c(Cl)cccc2Cl)S/C1=C\c1ccc2nccnc2c1 (2.5 µM) | 0
7 | Cc1cccc(-c2[nH]c(C(C)(C)C)nc2-c2ccc3nccnc3c2)n1 (10 µM) | 0
8 | O=C(Nc1cccc(C(F)(F)F)c1)c1cccc2cc(Oc3cc(CO)ncn3)ccc12 (10 µM) | 0
9 | CNc1cc(Nc2cccn(-c3ccccn3)c2=O)nn2c(C(=O)N[C@@H]3C[C@@H]3F)cnc12 (2.5 µM) | 0
10 | Cc1ccn2c(C(=O)C(=O)c3ccccc3)c(-c3ccccc3)nc2c1 (10 µM) | 0
11 | COc1cc(N2CCOCC2)ccc1Nc1ncc(Cl)c(Nc2ccccc2NS(C)(=O)=O)n1 (2.5 µM) | 0
12 | O=C(NC1CCOCC1)c1ccc(-c2cc(-c3c[nH]nc3-c3ccccn3)ccn2)cc1 (10 µM) | 0
13 | O=C1NC(=O)/C(=C/c2ccc3nccc(-c4ccncc4)c3c2)S1 (10 µM) | 0
14 | Cc1ncc(NC(=O)NC2c3ccccc3-c3ccccc32)c(-c2ccccc2)n1 (10 µM) | 0
15 | CC(C)C[C@@H](C(=O)Nc1ccn(C[C@@H](O)CO)n1)N1CC(Oc2ccccc2Cl)=CC1=O [Dorzagliatin] (10 µM) | 0
16 | O=C1O[C@H]([C@@H](O)CO)C(O)=C1OP(=O)(O)O [2-Phospho-L-ascorbic acid (trisodium)] (10 µM) | 0
17 | C[C@@H]1CC(=O)c2c(ccc3c2C(=O)c2cccc(O)c2C3=O)C1 [Ochromycinone] (10 µM) | 0
18 | Cc1c(-c2ccc(C(N)=O)c3[nH]c4cc(C(C)(C)O)ccc4c23)cccc1-n1cnc2ccccc2c1=O (2.5 µM) | 0
19 | CC(C)(C)n1nc(Cc2ccccc2O)c2c(N)ncnc21 (10 µM) | 0
20 | C=CC(=O)N1C(=O)CC(c2ccc(F)cc2)Sc2ccccc21 (stereo not drawn) [GSK-3β inhibitor 3] (10 µM) | 0

Row | Compound | number of time points
21 | CCc1ccc(OCC(=O)Nc2ccc(F)c([N+](=O)[O-])c2)cc1 (10 µM) | 0
22 | CN(C)c1nc2c(Br)c(Br)c(Br)c(Br)c2[nH]1 (10 µM) | 0
23 | Nc1ncnc2c1c(-c1ccc(Oc3ccccc3)cc1)nn2C1CCN(CCOCCOCCOc2ccc3c(c2)CN(C2CCC(=O)NC2=O)C3=O)CC1 (stereo not given) (2.5 µM) | 0
24 | Cc1cnc(NC2CCOCC2)nc1-n1cnc(C(=O)N[C@H](CN)c2cc(F)cc(Cl)c2)c1 (10 µM) | 0
25 | FC(F)(F)c1ccc(/C=C/c2nc(COc3ccc(CCCCn4ccnn4)cc3)co2)cc1 [Mubritinib] (10 µM) | 0
26 | Cc1cc2sc(NC(=O)Cc3ccccc3)nc2cc1Cl (10 µM) | 0
27 | O=C(CNc1cccc(Cl)c1)NC1CCCN(c2ncnc3[nH]ccc23)C1 (stereo not given) (10 µM) | 0
28 | Oc1ccc(/C=C/c2cc(O)cc(F)c2)cc1 [Resveratrol analog 1] (10 µM) | 0
29 | CC/C(=N\NC(=O)c1ccnc(NCCCN2CCOCC2)c1)c1ccc(Cl)cc1O (2.5 µM) | 0
30 | O[C@@H]1CO[C@H]2[C@@H]1OC[C@H]2Oc1nc2nc(-c3ccc(-c4ccccc4)cc3)c(Cl)cc2[nH]1 (10 µM) | 0
31 | Nc1c(C(=O)NCc2ccc(C(=O)NCCCC3CCCCC3)cc2)cnn1-c1ccccc1 (2.5 µM) | 0
32 | Cc1ccc(C(=O)Nc2sc(Nc3ccccc3)nc2C(N)=O)cc1 (10 µM) | 0
33 | COc1cc(N(C)CCN(C)C)c(N)cc1Nc1nccc(-c2cn(C)c3ccccc23)n1 [Mutated EGFR-IN-1] (10 µM) | 0
34 | CCN(CC)c1cc2oc(=O)c(-c3nc4ccccc4o3)cc2cc1C (2.5 µM) | 0
35 | Cn1cc(-c2cnc3cnn(S(=O)(=O)c4cnc5ccc(-c6cnn(C)c6)cn45)c3c2)cn1 [Glumetinib] (10 µM) | 0

Some of these compounds in order of length of the SMILES, rising:
Row | Compound | number of time points
26 | Cc1cc2sc(NC(=O)Cc3ccccc3)nc2cc1Cl (10 µM) | 0
33 | COc1cc(N(C)CCN(C)C)c(N)cc1Nc1nccc(-c2cn(C)c3ccccc23)n1 [Mutated EGFR-IN-1] (10 µM) | 0
25 | FC(F)(F)c1ccc(/C=C/c2nc(COc3ccc(CCCCn4ccnn4)cc3)co2)cc1 [Mubritinib] (10 µM) | 0
